Measured values: patent publication US8716437B2 (priority 2007, dated 2014)
Part of at least one peptide drawing is inferred or uncertain, most often the ends. Where a SMILES comes first, the peptide text is derived from it. Bridges are numbered along the chain shown (N, C = ends).

By UniProt entry, the sequences of proteins in these tests, tags left out.
UniProt P22001, whole entry: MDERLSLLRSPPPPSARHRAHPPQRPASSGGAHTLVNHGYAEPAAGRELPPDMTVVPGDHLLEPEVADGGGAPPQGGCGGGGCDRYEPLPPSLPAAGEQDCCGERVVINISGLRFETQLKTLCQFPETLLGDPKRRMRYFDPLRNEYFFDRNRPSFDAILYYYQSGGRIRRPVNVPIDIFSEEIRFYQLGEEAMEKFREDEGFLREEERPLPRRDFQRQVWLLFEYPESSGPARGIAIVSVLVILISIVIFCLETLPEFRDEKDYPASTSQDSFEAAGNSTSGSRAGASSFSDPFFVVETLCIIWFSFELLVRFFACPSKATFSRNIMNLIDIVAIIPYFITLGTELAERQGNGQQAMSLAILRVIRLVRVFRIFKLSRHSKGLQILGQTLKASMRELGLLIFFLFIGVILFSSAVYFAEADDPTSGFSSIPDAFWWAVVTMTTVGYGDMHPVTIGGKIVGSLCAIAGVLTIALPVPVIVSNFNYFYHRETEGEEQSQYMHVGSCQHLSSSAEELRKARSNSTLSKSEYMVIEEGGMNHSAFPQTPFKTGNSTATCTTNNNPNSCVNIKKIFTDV

Target: Kv1.3 (Homo sapiens, UniProt P22001)
Assay: Two electrode voltage clamp, Xenopus oocytes, Kv1.3
Type: cell-based
Design: expressed in transfected cells; host or cells: Xenopus laevis oocytes (cRNA injection)
Settings: read-out: approximate IC50 (nM) Kv1.3
From the text: Thereafter, MK-1 was synthesized. […] The blocking of […] by MK-1 is represented by filled circles; the blocking of Kv1.2 by MK-1 is represented by filled diamonds; and the blocking of Kv1.1 by MK-1 is represented by filled triangles.
To examine the effect of mokatoxin-1 on activity of potassium ion channels, cDNA encoding Rattus Kv1.1 (NCBI accession number NM_173095), Rattus Kv1.2 (NM_012970), Homo Kv1.3 (NM_002232), or Mus BK (NM_010610) were subcloned into oocyte expression vectors based on PCR3.1 and pGEM. cRNA synthesis was performed with T7 polymerase and the mMessageMachine Kit (Ambion, Austin, Tex.) according to manufacturers instructions. cRNA concentrations were determined spectroscopically. For two electrode voltage clamp recordings oocytes were extracted from Xenopus laevis and defoliculated with Collagenase Type 2 (Worthington, Lakewood, N.J.). […] Stage V and VI oocytes were injected with 8 pg to 4 ng cRNA, and currents recorded 1 to 4 days later.
For dose-response measurements of toxin block of Kv1.1, Kv1,2, or Kv1.3 peak currents were recorded during a 500 ms step to 0 mV from a holding voltage of −100 mV, followed by a 200 ms step to −135 mV every 30 s. […] BK currents were recorded during a 50 ms step to +60 mV from a holding voltage of −80 mV, followed by a 40 ms step to −100 mV every 3 s. […]

Compound: CC[C@H](C)[C@H](N)C(=O)N[C@@H](Cc1ccccc1)C(=O)N[C@H](C(=O)N[C@@H](CC(N)=O)C(=O)N[C@H](C(=O)N[C@@H](CCCCN)C(=O)N[C@H]1CSSC[C@@H]2NC(=O)[C@H](CCCCN)NC(=O)CNC(=O)CNC(=O)[C@H](C)NC(=O)[C@H](Cc3c[nH]cn3)NC(=O)[C@H](CCC(N)=O)NC(=O)CNC(=O)[C@H](Cc3ccccc3)NC(=O)[C@H](CCCNC(=N)N)NC(=O)[C@H](CC(=O)O)NC(=O)[C@H](CCCCN)NC(=O)[C@@H]3CSSC[C@@H](C(=O)N[C@@H](Cc4ccc(O)cc4)C(=O)N4CCC[C@H]4C(=O)O)NC(=O)[C@H](CCCCN)NC(=O)[C@H](CSSC[C@H](NC(=O)[C@H](CCC(N)=O)NC(=O)[C@H](CCC(N)=O)NC(=O)[C@@H]4CCCN4C(=O)[C@H](CC(C)C)NC(=O)[C@H](CO)NC1=O)C(=O)N[C@@H](CC(C)C)C(=O)N[C@@H](CCCNC(=N)N)C(=O)N1CCC[C@H]1C(=O)N3)NC(=O)[C@H](CCCCN)NC(=O)CNC(=O)[C@H](CC(N)=O)NC(=O)[C@H]([C@@H](C)CC)NC2=O)C(C)C)[C@@H](C)CC [Ce3] (H-IFINVKCSLPQQCLRPCKDRFGQHAGGKCINGKCKCYP-OH; disulfide 7-29, 13-34, 17-36)
- IC50: ~366 nM
